Assay results reported in the supplement of paper PMC5949888.
Most values lie at the floor of the assay. Slopes are relative: functional sequences can read slightly below zero.

system: Saccharomyces cerevisiae PS128 hsf1 delta, HSF1(1-493) fusion; assay: growth estimate (transactivation domain function in HSF1 fusion, heat-shock survival) (a.u. (slope of normalised read count over time)); higher = stronger growth at 37°C, i.e. more transactivation activity; conditions: library: random library

| Substance | growth estimate |
| --- | --- |
| QALHV | < -0.25 |
| QALKTRIGCAGYTDLV | < -0.25 |
| QALLRRYHMMCSDSLGRFGA | < -0.25 |
| QANPSTLTARSDWQRRKICS | < -0.25 |
| QARECTGSYCIRAATDRKTH | < -0.25 |
| QAREKDELPYPQAWGTRVLA | < -0.25 |
| QARESRPLRKNRENGCGLEG | < -0.25 |
| QARKDLEVGAVRSNE | < -0.25 |
| QARVLLRTFVVRVPRVHSSS | < -0.25 |
| QASIHAAERCDVGTASGSRL | < -0.25 |
| QAT | < -0.25 |
| QATGRARFGGNPASPGSICW | < -0.25 |
| QATLDQAGD | < -0.25 |
| QAVPSRDRHSLRIL | < -0.25 |
| QAVQIFGTTS | < -0.25 |
| QAYNHPEYAAKGVRIRWCYT | < -0.25 |
| QCGHAAPVS | < -0.25 |
| QCGNVKGCQSEVS | < -0.25 |
| QCKAE | < -0.25 |
| QCKGHRTPTNVGSKFARFCK | < -0.25 |
| QCKKGVARDAKEHSIFIFAP | < -0.25 |
| QCKSVPWFPAGRGALWAVTR | < -0.25 |
| QCLRQSSVWPSQ | < -0.25 |
| QCMPMEI | < -0.25 |
| QCRRHALRPYHMDTHDPDGA | < -0.25 |

At a glance, some entries already given.

| Substance | growth estimate |
| --- | --- |
| QCKGHRTPTNVGSKFARFCK | < -0.25 |
| QCKKGVARDAKEHSIFIFAP | < -0.25 |
| QCKSVPWFPAGRGALWAVTR | < -0.25 |
| QCLRQSSVWPSQ | < -0.25 |
| QCMPMEI | < -0.25 |

Following part.

| Substance | growth estimate |
| --- | --- |
| QCV | < -0.25 |
| QCW | < -0.25 |
| QDEQWCTNALVSPALWRSTQ | < -0.25 |
| QDLMFTDFEESKCGVRGTLK | < -0.25 |
| QDNFSVIVSHFYCLAFVIPQ | < -0.25 |
| QDPFLTS | < -0.25 |
| QDQCREFIAALYAHLIVFGT | < -0.25 |
| QDRCAQCVIIQVGWSKVGIP | < -0.25 |
| QDSGPIAEQSEH | < -0.25 |
| QDTIKVTRAVGPASQFSLTI | < -0.25 |
| QDTLFF | < -0.25 |
| QDW | < -0.25 |
| QDYTIR | < -0.25 |
| QEAYPFRLHRPTDARPCLAS | -0.218 |
| QED | < -0.25 |
| QEDARSGEVRSGRWMESLLP | < -0.25 |
| QEDKGRTPVSGPRSDPAHRV | < -0.25 |
| QEDTLDFIPVPGLTKGGRAS | < -0.25 |
| QEGAGQLVTIQLPRDHGKTS | -0.246 |
| QEGPGFLSEGRYS | < -0.25 |
| QEGVGMTILNSMVVAPPRCT | < -0.25 |
| QEKGCPLLETIGGHSAPT | < -0.25 |
| QELCSLLLLISNDLGRLFLG | < -0.25 |
| QERLCTAVYASSFAFHLDIH | < -0.25 |
| QETACPTLSVCGLVREARGP | < -0.25 |

| Substance | growth estimate |
| --- | --- |
| QEV | < -0.25 |
| QEVRLSCEWITWTLVCHFPR | -0.25 |
| QEWVCGRQ | < -0.25 |
| QFFF | < -0.25 |
| QFGPLASQSKTGVIS | < -0.25 |
| QFNVM | < -0.25 |
| QFRKRTQAHGGRVGGPRVSD | < -0.25 |
| QFRLRGVSAYGNTSRVGAGT | < -0.25 |
| QFSGDCLRHRTEALDVLRSR | < -0.25 |
| QFSSGRKLVMGGLRGP | < -0.25 |
| QFSSQRLAGRS | < -0.25 |
| QFTDPGPQTNAFCWHGSDSA | < -0.25 |
| QFTKCSSDQSVPCFFLLSSP | -0.248 |
| QFWAGSRT | < -0.25 |
| QGAGGAHNQSLLYCTCIIPP | < -0.25 |
| QGCLFKRGWGANSYARADTS | < -0.25 |
| QGECRIGKRYGCT | < -0.25 |
| QGEGSADMVQFGLCGVTRDE | < -0.25 |
| QGEIGALWFCMGPTLLGAPI | < -0.25 |
| QGELNILGVGGSLPVRLYAD | < -0.25 |
| QGESHDA | < -0.25 |
| QGFIYYGLTMSLTP | < -0.25 |
| QGFNSRPYFPVLYYQLRARY | < -0.25 |
| QGI | < -0.25 |
| QGIGLEGRMRT | < -0.25 |

| Substance | growth estimate |
| --- | --- |
| QGILLKTGYTIPLAWRFDMY | < -0.25 |
| QGLRRQT | < -0.25 |
| QGM | < -0.25 |
| QGMLR | < -0.25 |
| QGMRDGLSRCVDPVRLGRGY | < -0.25 |
| QGRGWPCISKR | < -0.25 |
| QGRTARGRRGTKE | -0.25 |
| QGRVSTCQTLDKARYSASPL | < -0.25 |
| QGS | < -0.25 |
| QGSGLRFN | < -0.25 |
| QGSMLDIAAR | < -0.25 |
| QGVALTLYIL | < -0.25 |
| QGVDER | < -0.25 |
| QGVYLGHNRNSVLTP | < -0.25 |
| QGYCESMGGLRLNDLIPCQA | < -0.25 |
| QGYKRGV | -0.0786 |
| QGYRTVCVYINLGRWVG | -0.237 |
| QGYSKRWTGLGQLRNSGNR | < -0.25 |
| QHG | < -0.25 |
| QHISQESGCWDINHRDLFYA | -0.121 |
| QHLETSYRKICVPRSGLGQV | < -0.25 |
| QHLFPRV | < -0.25 |
| QHRG | < -0.25 |
| QHRRKRGRWLLEVMKNH | < -0.25 |
| QHVGRSVWGRREWYQAGLSG | < -0.25 |

| Substance | growth estimate |
| --- | --- |
| QIDVPSRVRTQSPGEVQWAA | < -0.25 |
| QIEPYGPRRG | < -0.25 |
| QIGPHERLATTF | < -0.25 |
| QIKSAFGGSSVWAARESEDM | < -0.25 |
| QILGGVGAL | < -0.25 |
| QILPWP | < -0.25 |
| QINGG | < -0.25 |
| QIQTNDDRGGFSRGN | < -0.25 |
| QIRVSILSQVGATR | < -0.25 |
| QIT | < -0.25 |
| QITEGSWPTSRCICFALVTR | < -0.25 |
| QITIRYLTGGTPVC | < -0.25 |
| QIVDRVSYARKETISTGDVS | < -0.25 |
| QIVEMANKRLRFVSRHKGER | < -0.25 |
| QKAREVHGRGPKSSLRLSRL | < -0.25 |
| QKITRFSARGLAKAGGRFTT | < -0.25 |
| QKLQKRDLGPQHVTCGSSIV | -0.243 |
| QKPAYSPQNMASFADRVGVG | < -0.25 |
| QKRESASSE | -0.232 |
| QKSLIGSVAGVGPGLGGGPH | < -0.25 |
| QLAAYEGDRAYSIHCRK | < -0.25 |
| QLARDSAARLADSWII | < -0.25 |
| QLCCRQKDLRRLVIGFN | < -0.25 |
| QLCV | < -0.25 |
| QLDVRHPIHSKAERIWLVHD | < -0.25 |

| Substance | growth estimate |
| --- | --- |
| QLEASRDTPGTLPNGPPSGS | < -0.25 |
| QLEGPYAANVFKDGAQEKGQ | < -0.25 |
| QLGHEALIPAGLQ | < -0.25 |
| QLGMV | < -0.25 |
| QLGPDVTSETVVM | < -0.25 |
| QLIAGAVFSRRPRQGR | < -0.25 |
| QLLGRFTGAKDVRD | < -0.25 |
| QLLRSNTLRP | < -0.25 |
| QLMTDLGLWSLSDRGLERVS | < -0.25 |
| QLPKRKLTRQESWPTRIHAK | < -0.25 |
| QLQECIKGYKPEKTCSPVQR | < -0.25 |
| QLQRLRLVFKLEILKTKCDP | < -0.25 |
| QLR | < -0.25 |
| QLRRMACETKVV | < -0.25 |
| QLRTTTIMSIGYLAIFYGDR | < -0.25 |
| QLRVLVCEERRNIPACDNIG | < -0.25 |
| QLSNLLLPCGTIIPA | < -0.25 |
| QLSVVNPEKSSQGSLHKTSP | < -0.25 |
| QLTEEVTFRLSAD | < -0.25 |
| QLTHVSQHLDLDP | < -0.25 |

Given with bars between the fields: entries from further up
Substance | growth estimate
QLLGRFTGAKDVRD | < -0.25
QLLRSNTLRP | < -0.25
QLMTDLGLWSLSDRGLERVS | < -0.25
QLPKRKLTRQESWPTRIHAK | < -0.25
QLQECIKGYKPEKTCSPVQR | < -0.25
QLQRLRLVFKLEILKTKCDP | < -0.25
